{
  "source": "PubChem BioAssay AID248",
  "about": "(DTP/NCI, 2004)",
  "system": "L1210 leukemia ip in BDF1 mice, survival T/C",
  "experiment": "NCI In Vivo Anticancer Drug Screen. Data for tumor model L1210 Leukemia (intraperitoneal) in B6D2F1 (BDF1) mice",
  "details": "T/C endpoint: mean survival time, higher T/C = longer survival",
  "key": {"[1]": {"details": "dose: 200.0 mg/kg/injection, schedule: Q01DX009 (ip), vehicle: Klucel (hydroxypropylcellulose) (HPC)"}, "[2]": {"details": "dose: 400.0 mg/kg/injection, schedule: Q01DX009 (ip), vehicle: Klucel (hydroxypropylcellulose) (HPC)"}, "[3]": {"details": "dose: 400.0 mg/kg/injection, schedule: Q01DX001 (ip), vehicle: saline"}, "[4]": {"details": "dose: 200.0 mg/kg/injection, schedule: Q04DX003 (ip), vehicle: saline"}, "[5]": {"details": "dose: 400.0 mg/kg/injection, schedule: Q04DX003 (ip), vehicle: saline"}},
  "note": "The list shows only some results of the screen, not a fair sample: it is rich in T/C values a quarter to a half above the control, in often repeated tests (any T/C) and in doses without a T/C. Further doses and runs are listed elsewhere. T/C gives the treated animals as a percentage of the vehicle group. Some entries give survivors of the animals treated and no T/C: the source holds a T/C of zero for them, seemingly a mark for toxic or unscored doses. Some survivor counts are full or nearly so, which does not show that the dose was tolerated: the source hardly ever lists a survival T/C far under the control, and the zero likely stands for such cases as well. Survivors were counted at the toxicity check, usually on the fifth day, unless a day is given; later deaths do not show. Schedule codes are those of the source, taken here to give the interval after Q, in days (D) or hours (H), and the number of doses after X. For survival time, this PubChem deposit counts one and a half times the control or more as active, and values a quarter to a half above the control carry no call in these data; other NCI protocols may use other cut-offs.",
  "data": [
    {"smiles": "CS(=O)(=O)OCCN(CCOS(C)(=O)=O)c1cccc(C(F)(F)F)c1", "values": [
      {"measurement": "T/C", "setting": "dose: 38.0 mg/kg/injection, schedule: Q01DX015 (ip), vehicle: saline", "value": "127 % of control"},
      {"measurement": "T/C", "setting": "dose: 40.0 mg/kg/injection, schedule: Q01DX001 (ip), vehicle: saline", "value": "132 % of control"},
      {"measurement": "survivor count", "setting": "dose: 80.0 mg/kg/injection, schedule: Q01DX001 (ip), vehicle: saline", "value": "3 of 4"}
    ]},
    {"smiles": "NNS(=O)(=O)c1ccccc1", "values": [
      {"measurement": "survivor count", "setting": "dose: 200.0 mg/kg/injection, schedule: Q01DX001 (ip), vehicle: carboxymethylcellulose (CMC)", "value": "0 of 4"},
      {"measurement": "survivor count", "setting": "dose: 400.0 mg/kg/injection, schedule: Q01DX001 (ip), vehicle: carboxymethylcellulose (CMC)", "value": "0 of 4"}
    ]},
    {"smiles": "OCCCNc1nc2cc(Cl)ccc2c2ccc(Cl)cc12", "values": [
      {"measurement": "survivor count", "setting": "[1]", "value": "2 of 6"},
      {"measurement": "survivor count", "setting": "[2]", "value": "1 of 6"}
    ]},
    {"smiles": "Cc1ccc(S(=O)(=O)NC(CCC(=O)O)C(=O)O)cc1", "note": "(stereo unspecified)", "values": [
      {"measurement": "survivor count", "setting": "[3]", "value": "1 of 4"}
    ]},
    {"smiles": "CC1(C)N=C(N)N=C(N)N1c1ccc(OCCOc2ccc(S(=O)(=O)F)cc2)c(Cl)c1", "values": [
      {"measurement": "T/C", "setting": "dose: 25.0 mg/kg/injection, schedule: Q01DX009 (ip), vehicle: saline sonified", "value": "128 % of control"},
      {"measurement": "T/C", "setting": "dose: 50.0 mg/kg/injection, schedule: Q04DX003 (ip), vehicle: saline sonified", "value": "127 % of control"}
    ]},
    {"smiles": "O=S(=O)([O-])Sn1c(-c2ccccc2)c[n+]2ccccc12", "values": [
      {"measurement": "survivor count", "setting": "dose: 75.0 mg/kg/injection, schedule: Q01DX001 (ip), vehicle: saline", "value": "2 of 6"},
      {"measurement": "survivor count", "setting": "dose: 150.0 mg/kg/injection, schedule: Q01DX001 (ip), vehicle: saline", "value": "0 of 6"},
      {"measurement": "survivor count", "setting": "dose: 300.0 mg/kg/injection, schedule: Q01DX001 (ip), vehicle: saline", "value": "0 of 6"}
    ]},
    {"smiles": "CC1CCCC(C)(C)C1NCc1cc(Br)cc(Br)c1O", "note": "(stereo unspecified)", "values": [
      {"measurement": "survivor count", "setting": "[1]", "value": "2 of 6"}
    ]},
    {"smiles": "CCCCC(=O)N/N=C/c1ccccc1Cl", "values": [
      {"measurement": "survivor count", "setting": "[3]", "value": "1 of 6"}
    ]},
    {"smiles": "O=S1(=O)CCC2C1C1(Cl)C(Cl)=C(Cl)C2(Cl)C1(Cl)Cl", "note": "(stereo unspecified)", "values": [
      {"measurement": "survivor count", "setting": "dose: 100.0 mg/kg/injection, schedule: Q04DX003 (ip), vehicle: saline with Tween-80", "value": "2 of 6"},
      {"measurement": "survivor count", "setting": "dose: 200.0 mg/kg/injection, schedule: Q04DX003 (ip), vehicle: saline with Tween-80", "value": "0 of 6"},
      {"measurement": "survivor count", "setting": "dose: 400.0 mg/kg/injection, schedule: Q04DX003 (ip), vehicle: saline with Tween-80", "value": "0 of 6"}
    ]},
    {"smiles": "CC(C)OC(=O)c1ccc(N)cc1S(N)(=O)=O", "values": [
      {"measurement": "survivor count", "setting": "dose: 200.0 mg/kg/injection, schedule: Q01DX001 (ip), vehicle: other", "value": "2 of 4"},
      {"measurement": "survivor count", "setting": "dose: 400.0 mg/kg/injection, schedule: Q01DX001 (ip), vehicle: other", "value": "0 of 4"}
    ]},
    {"smiles": "OCC1C2CCC(C2)C1CO", "note": "(stereo unspecified)", "values": [
      {"measurement": "survivor count", "setting": "dose: 100.0 mg/kg/injection, schedule: Q01DX009 (ip), vehicle: saline with Tween-80", "value": "2 of 6"},
      {"measurement": "survivor count", "setting": "dose: 200.0 mg/kg/injection, schedule: Q01DX009 (ip), vehicle: saline with Tween-80", "value": "0 of 6"}
    ]},
    {"smiles": "C/C(=N\\[N+](C)(C)C)c1ccc(Br)cc1", "values": [
      {"measurement": "survivor count", "setting": "dose: 150.0 mg/kg/injection, schedule: Q01DX009 (ip), vehicle: saline", "value": "0 of 6"},
      {"measurement": "survivor count", "setting": "[4]", "value": "1 of 6"},
      {"measurement": "survivor count", "setting": "dose: 225.0 mg/kg/injection, schedule: Q01DX009 (ip), vehicle: saline", "value": "0 of 6"},
      {"measurement": "survivor count", "setting": "dose: 335.0 mg/kg/injection, schedule: Q01DX009 (ip), vehicle: saline", "value": "0 of 6"},
      {"measurement": "survivor count", "setting": "[5]", "value": "0 of 6"}
    ]},
    {"smiles": "CN1CCN=C(c2ccccc2)c2cc(Cl)ccc21", "values": [
      {"measurement": "survivor count", "setting": "dose: 200.0 mg/kg/injection, schedule: Q01DX009 (ip), vehicle: saline", "value": "0 of 6"},
      {"measurement": "survivor count", "setting": "[4]", "value": "4 of 4"},
      {"measurement": "survivor count", "setting": "dose: 400.0 mg/kg/injection, schedule: Q01DX009 (ip), vehicle: saline", "value": "0 of 6"},
      {"measurement": "survivor count", "setting": "[5]", "value": "1 of 4"}
    ]},
    {"smiles": "N#CC(c1c[nH]c2ccccc12)N1CCOCC1", "note": "(stereo unspecified)", "values": [
      {"measurement": "survivor count", "setting": "dose: 100.0 mg/kg/injection, schedule: Q04DX002 (ip), vehicle: saline with Tween-80", "value": "0 of 3"},
      {"measurement": "survivor count", "setting": "dose: 200.0 mg/kg/injection, schedule: Q04DX002 (ip), vehicle: saline with Tween-80", "value": "0 of 3"},
      {"measurement": "survivor count", "setting": "dose: 400.0 mg/kg/injection, schedule: Q04DX002 (ip), vehicle: saline with Tween-80", "value": "0 of 3"}
    ]},
    {"smiles": "Cc1c(N2CCCCC2)[nH]c2ccccc12", "values": [
      {"measurement": "survivor count", "setting": "[1]", "value": "6 of 6"},
      {"measurement": "survivor count", "setting": "[2]", "value": "6 of 6"}
    ]}
  ]
}
